Some results were stated once for a whole list of compounds, not compound by compound.
How the values were obtained:
Assay type in all cases: in vivo
[1] = system: Erysiphe graminis f.sp. tritici; assay: Action against Erysiphe graminis f.sp. tritici (wheat powdery mildew), leaf segment preventive test; details: wheat leaf segments, 0.02% active ingredient, assessed 7 days after inoculation
[2] = system: Pyrenophora teres; assay: Action against Pyrenophora teres (net blotch) on barley, leaf segment preventive test; details: barley leaf segments, 0.02% active ingredient, assessed 4 days after inoculation
[3] = system: Botrytis cinera; assay: Action against Botrytis cinera (grey mold) on beans, leaf disk preventive test; details: bean leaf disks, 0.02% active ingredient, assessed 3 days after inoculation

Compound	infestation [1]	infestation [2]	infestation [3]
COC(c1ccc(Cl)cc1Cl)C(C)NC(=O)c1cn(C)nc1C(F)F (stereo not shown) [Compound 1.14, 3-difluoromethyl-1-methyl-1H-pyrazole-4-carboxylic acid [2-(2,4-dichlorophenyl)-2-methoxy-1-methyl-ethyl]-amide]	≤ 20%	≤ 20%	≤ 20%
CONC(c1ccc(Cl)cc1Cl)C(C)NC(=O)c1cn(C)nc1C(F)F (stereo not shown) [Compound 1.76, 3-difluoromethyl-1-methyl-1H-pyrazole-4-carboxylic acid [2-(2,4-dichlorophenyl)-2-methoxyamino-1-methyl-ethyl]-amide]	–	≤ 20%	–
